Where “and” joins values, the source holds several entries; their conditions need not be identical. Equal entries are not always repeated.
Legend:
[1] = test system: pentylenetetrazol-induced seizure (scMet); test: Subcutaneous metrazol seizure test (scMet) in mice; settings: i.p.
6 Hz psychomotor seizure = 6 Hz psychomotor seizure test in mice; settings: i.p.
[2] = test system: maximal electroshock seizure (MES); test: Maximal electroshock seizure (MES) test in mice; settings: i.p.
[3] = test system: maximal electroshock seizure (MES); test: Maximal electroshock seizure (MES) test in rats

| SMILES | PI (TD50/ED50), scMet [1] | PI (TD50/ED50), 6 Hz (6 Hz psychomotor seizure) | PI (TD50/ED50), MES [2] | PI (TD50/ED50), MES ([3]; i.p.) | PI (TD50/ED50), MES ([3]; p.o.) |
| --- | --- | --- | --- | --- | --- |
| CCCC(COC(=O)Nc1ccc(S(N)(=O)=O)cc1)C(C)CC (stereo not drawn) [Compound 1, 3-methyl-2-propylpentyl (4-sulfamoylphenyl)carbamate] | >1.6 | >6.8 | >3.6 | – | – |
| CCC(C)CCOC(=O)Nc1ccc(S(N)(=O)=O)cc1 (stereo not drawn) [Compound 10, 3-methylpentyl(4-sulfamoylphenyl)carbamate] | 10 | 7.9 | 59 and 50 | > 10 and >19.2 | >17.8 |
| CCC(C)C(C)OC(=O)Nc1ccc(S(N)(=O)=O)cc1 (stereo not drawn) [Compound 9, 3-methylpentan-2-yl (4-sulfamoylphenyl)carbamate] | >1.6 | >11.3 | >19.4 | – | >21.4 |
